In US20260152529 (published 2026):

Experiment: general procedure: solution-phase peptide synthesis
Details: for cyclisation yield: cyclisation step, HPLC internal standard
[1] = late stage modification step, qNMR

Substance: tert-butyl 2-[[(2S)-2-[[(2S)-1-[(2S)-2-[[(2S,3S)-2-(benzyloxycarbonylamino)-3-methyl-pentanoyl]-methyl-amino]propanoyl]azetidine-2-carbonyl]-ethyl-amino]-3-(p-tolyl)propanoyl]-methyl-amino]acetate
- step yield (coupling step, HPLC with standard): 90%
- step yield (coupling step, run 1): 61.9%
- step yield (coupling step, run 2): 68.6%
- step yield (coupling step, run 3): 61.4%

Substance: (2S)-1-[(2S)-2-[[2-[[(2S)-2-[benzyloxycarbonyl(ethyl)amino]-3-(p-tolyl)propanoyl]-methyl-amino]acetyl]amino]-4-[3,5-difluoro-4-(trifluoromethyl)phenyl]butanoyl]pyrrolidine-2-carboxylic acid
- step yield [1]: 77.5%

Substance: (5S,8S,11S,15S,18S,23aS,29S,35S,37aS)-8-((S)-sec-butyl)-18-cyclopentyl-29-(3,5-difluoro-4-(trifluoromethyl)phenethyl)-36-ethyl-11-isobutyl-N,N,5,6,12,16,19,33-octamethyl-35-(4-methylbenzyl)-4,7,10,13,17,20,23,28,31,34,37-undecaoxotetratriacontahydro-2H,4H-spiro
- cyclisation yield (run 1): 84%
- cyclisation yield (run 2): 86%
- cyclisation yield (run 3): 84%
- cyclisation yield (run 4): 82%
- cyclisation yield (run 5): 71%
- cyclisation yield (run 6): 83%
- cyclisation yield (run 7): 88%
- cyclisation yield (run 8): 83%

Substance: tert-butyl (2S)-1-[(2S)-2-[methyl-[(2S,3S)-3-methyl-2-[[(2S)-4-methyl-2-(methylamino)pentanoyl]amino]pentanoyl]amino]propanoyl]azetidine-2-carboxylate
- step yield [1]: 85.4%

Substance: tert-butyl (2S)-1-[(2S)-2-[methyl-[(2S,3S)-3-methyl-2-[[(2S)-4-methyl-2-[methyl(2-trimethylsilylethoxycarbonyl)amino]pentanoyl]amino]pentanoyl]amino]propanoyl]azetidine-2-carboxylate
- step yield (coupling step, qNMR): 88.1%
